Measurements taken from patent publication US12053452B2 (priority 2021, dated 2024).
Some entries share one result that the patent states for a list of compounds.

Legend:
C57 mice = assay: Social preference procedure: compartment entries (proxy for locomotor stimulant effects), C57; format: in vivo; details: social novelty test
Description: (§1) This assay was conducted in adult male C57 and BTBR mice (n=6 per group) in a dedicated conditioning room where ambient light, sound, and human contact were tightly controlled. Social preference chambers consist of two polycarbonate boxes (13.5 cm wide×22.5 cm tall×31.0 cm deep), floored with rough-textured black ABS plastic, and connected to one another by a 1.25″ PVC T-junction. An infrared photobeam emitter/detector array is mounted at each intersection of the T-junction and each preference compartment, and as a mouse traversed the apparatus, it would break the photobeam upon entry to or exit from each preference compartment. Beam breaks started or stopped a counter on an interfaced computer, allowing automated collection of time spent in each compartment. At the end of each test, data were reported as time (in seconds) spent in each compartment, the number of entries into each compartment, and the average time spent in each compartment following an entry. Social preference tests were conducted in an iterative manner, with each test subject completing four distinct phases as described below. Between testing sessions, chambers were sanitized by wiping the insides with a disinfectant product provided by the UAMS Department of Laboratory Animal Medicine. At the end of the week (upon completion of all phases of the procedure), each apparatus was disassembled and all parts were sanitized. No food or water were available during social preference sessions, but were available in the home cage immediately afterwards.
Quantification of total entries into the preference compartments provided a proxy measurement for locomotor stimulant effects of the various doses of the various test drugs. This established a limit to the drug doses that can be tested in the social preference procedure, as induction of locomotor stimulant effects confounds preference assessments (because mice stop attending to the social stimuli in each compartment and instead spend their time engaged in locomotor behavior.) Motor activity varied across the distinct phases of social preference testing, in part because the habituation session is twice as long (30 minutes) as the novelty, sociability, and social novelty tests (15 minutes each), but also because mice emitted high levels of exploratory behavior in novel environments. Thus, as familiarity with the test apparatus increased over successive exposures to the chambers, the number of entries decreased.
(Note that entries were collected for every test, but drug effects on entries during earlier phases may be less reliable due to the confounding influence of changing familiarity with the apparatus across phases.)

BTBR mice = assay: Social preference procedure: compartment entries (proxy for locomotor stimulant effects), BTBR; format: in vivo; details: all tested doses IP
Description: as §1, with “Between testing sessions, chambers were sanitized by wiping the insides with a disinfectant product provided by the UAMS Department of Laboratory Animal Medicine. At the end of the week (upon completion of all phases of the procedure), each apparatus was disassembled and all parts were sanitized. No food or water were available during social preference sessions, but were available in the home cage immediately afterwards.” left out
Quantification of total entries into the preference compartments provided a proxy measurement for locomotor stimulant effects of the various doses of the various test drugs. […]

SMILES | compartment entries (locomotor stimulant effect) (C57 mice; 10 mg/kg IP, 10 mg/kg) | compartment entries (locomotor stimulant effect) (C57 mice; 10 mg/kg IP, listed as Racemic MDMA, 10 mg/kg) | compartment entries (locomotor stimulant effect) (BTBR mice) [entries] | compartment entries (locomotor stimulant effect) (C57 mice; 3.0 mg/kg IP) | compartment entries (locomotor stimulant effect) (C57 mice; 10 mg/kg IP, listed as S-(+)-MDMA, 10 mg/kg)
CNC(C)Cc1ccc2c(c1)OCO2 (racemic) [racemic MDMA, 1-(1,3-benzodioxol-5-yl)-N-methylpropan-2-amine] | over 150 entries | over 100 entries | ≤ 100 |  | 
CN[C@@H](C)Cc1ccccc1 [methamphetamine] |  |  |  | over 150 entries | 
CN[C@@H](C)Cc1ccc2c(c1)OCO2 [S(+)-MDMA, (2S)-1-(1,3-benzodioxol-5-yl)-N-methylpropan-2-amine] | over 150 entries |  | ≤ 100 |  | over 100 entries
